The values that follow come from paper PMC4284746.

Amino acid sequences for entries named in this document (tags omitted). A change or cut given only in a name is not applied to a line headed by its entry. Chains listed by the source or under a name are the forms on record and can include a tag or linker.
UniProt P00441: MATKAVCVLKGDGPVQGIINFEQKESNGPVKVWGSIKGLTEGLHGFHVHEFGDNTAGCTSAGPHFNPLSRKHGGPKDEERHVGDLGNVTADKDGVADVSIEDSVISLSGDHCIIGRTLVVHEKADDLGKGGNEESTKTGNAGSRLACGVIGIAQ
human SOD1 G85R expressed in transgenic mouse spinal cord (P00441, form named): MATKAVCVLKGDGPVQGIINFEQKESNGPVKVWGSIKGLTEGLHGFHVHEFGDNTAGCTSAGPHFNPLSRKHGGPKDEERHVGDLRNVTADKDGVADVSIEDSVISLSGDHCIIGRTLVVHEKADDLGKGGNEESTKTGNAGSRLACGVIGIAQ
UniProt Q3UHJ0: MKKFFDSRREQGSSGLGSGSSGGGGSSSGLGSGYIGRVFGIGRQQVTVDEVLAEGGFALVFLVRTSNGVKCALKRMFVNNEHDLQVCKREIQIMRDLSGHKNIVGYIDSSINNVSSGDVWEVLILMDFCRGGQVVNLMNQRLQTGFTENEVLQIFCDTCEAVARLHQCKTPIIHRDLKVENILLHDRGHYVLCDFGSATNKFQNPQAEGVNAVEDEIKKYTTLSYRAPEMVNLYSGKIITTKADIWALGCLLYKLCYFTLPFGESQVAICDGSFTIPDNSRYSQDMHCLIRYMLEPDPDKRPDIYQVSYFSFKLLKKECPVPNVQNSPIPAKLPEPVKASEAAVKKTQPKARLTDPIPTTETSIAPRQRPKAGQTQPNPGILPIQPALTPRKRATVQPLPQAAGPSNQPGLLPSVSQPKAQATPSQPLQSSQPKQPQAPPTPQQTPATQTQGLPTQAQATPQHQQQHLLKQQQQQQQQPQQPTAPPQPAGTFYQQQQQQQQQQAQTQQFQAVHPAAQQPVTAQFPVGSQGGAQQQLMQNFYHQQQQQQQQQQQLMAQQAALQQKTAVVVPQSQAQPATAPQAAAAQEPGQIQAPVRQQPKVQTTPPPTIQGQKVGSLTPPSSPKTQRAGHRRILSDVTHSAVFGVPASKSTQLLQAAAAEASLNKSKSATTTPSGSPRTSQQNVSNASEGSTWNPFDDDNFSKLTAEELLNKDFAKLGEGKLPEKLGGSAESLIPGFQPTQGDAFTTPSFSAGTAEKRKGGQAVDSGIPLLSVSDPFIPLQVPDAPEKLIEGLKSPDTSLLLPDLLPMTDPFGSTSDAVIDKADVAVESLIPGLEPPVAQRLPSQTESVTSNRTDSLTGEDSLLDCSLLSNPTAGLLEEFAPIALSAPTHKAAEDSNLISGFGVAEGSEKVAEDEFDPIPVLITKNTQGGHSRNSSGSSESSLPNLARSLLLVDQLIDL

These are yes or no findings as the source states them, for the method shown. In cells and extracts the contact can be indirect.

The experiment addresses human SOD1 G85R expressed in transgenic mouse spinal cord (human) (UniProt P00441). As to the kind of experiment: co-IP; immunoprecipitation from synaptosomal preparations of SOD1^G85R transgenic mouse spinal cord tissues; which protein was precipitated not given.

With “AAK1, endogenous in mouse spinal cord (from UniProt Q3UHJ0 1-959) (enzyme)”, the binding entry is recorded as “no binding”.
